Data as given in PubChem BioAssay AID720505 (Drosophila RNAi Screening Center, 2013).
The deposit covers about 20,000 reagents; below is an unselected part of those that have a named target and a result. Over the whole deposit, about 2,100 (10%) are marked active. 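Raw plate signals without normalisation; calls rest on control-based scores that were not deposited; replicate 2 separates called from uncalled poorly.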 Not given: the amount of reagent, the time to read-out.

Aim: 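Knock-downs that reduce calcium influx once internal stores are emptied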 (primary screen)
System: Drosophila S2R+ cells
Reagents: long dsRNA against Drosophila genes
Treatment: thapsigargin (2 µM) in calcium-free buffer to empty internal stores, then 2 mM calcium added back
Read-out: 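Stores emptied by 2 µM thapsigargin without calcium, then 2 mM calcium re-added; fluo-4 fluorescence followed by FLIPR in 384-well plates, per-well averaged endpoint, raw; two screen passes, some wells retested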
Reading the numbers: calcium signal and retest calcium signal: higher = more calcium entry after store depletion
Active means: 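About 1500 genes called as lowering calcium entry, by varying amounts, judged against per-plate control wells with STIM1 as positive and Rho1 as negative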
Meaning of the calls: active = called as lowering calcium entry; inactive = not called

calcium signal, replicate 1	calcium signal, replicate 2	retest calcium signal, replicate 1	retest calcium signal, replicate 2	Outcome	Target gene	dsRNA
114	188			inactive	CG4734	DRSC06885
106	276			inactive	CG4734	DRSC22072
84.1	73.1			inactive	Ccz1 (Caffeine, calcium, zinc sensitivity 1)	DRSC08439
110	149			inactive	Pak (p21-activated kinase)	DRSC12602
131	167			inactive	Pak (p21-activated kinase)	DRSC23302
92.2	163			inactive	CG31457	DRSC22935
106	136			inactive	CG12995	DRSC19515
170	178			inactive	Trf (TBP-related factor)	DRSC03462
79.2	115			inactive	CG17944	DRSC12572
201	101			inactive	CG1632	DRSC18110
54.3	116			active	B-H2 (BarH2)	DRSC19335
131	165			inactive	B-H2 (BarH2)	DRSC23012
87.7	68			inactive	Dhc62B (Dynein heavy chain at 62B)	DRSC08655
127	109			inactive	CG4367	DRSC15568
135	121			inactive	CG13427	DRSC06389
76	169			inactive	hfw (halfway)	DRSC18506
182	169			inactive	CG18528	DRSC15340
153	142			inactive	CG3419 (retired record)	DRSC04368
175	214			inactive	CG3419 (retired record)	DRSC04369
72.6	109			active	Prosalpha2 (Proteasome alpha2 subunit)	DRSC16798
62.3	99.9			active	CG30350	DRSC07690
109	86.4			inactive	CG32407	DRSC09789
217	145			inactive	CG3198	DRSC18292
54.5	45			active	CG44837	DRSC10133
71.1	75.1			inactive	CG44837	DRSC10558
86.5	92.8			active	Slu7	DRSC14729
112	164			inactive	nord	DRSC04210
129	150			inactive	nord	DRSC04361
88	108			inactive	Ugt49C1 (UDP-glycosyltransferase family 49 member C1)	DRSC04252
66.8	210			inactive	clt (cricklet)	DRSC04621
188	133			inactive	CG31189	DRSC16198
97.2	117			inactive	Usp10 (Ubiquitin specific protease 10)	DRSC08282
78.5	97.5			inactive	Usp10 (Ubiquitin specific protease 10)	DRSC08373
74.9	72.8			inactive	bin (biniou)	DRSC10332
208	136			inactive	CG15764	DRSC18070
95.1	112			inactive	RunxB (Runt related B)	DRSC20395
200	96.1			inactive	RunxB (Runt related B)	DRSC20525
67.1	120			active	RunxB (Runt related B)	DRSC20526
87.6	132			inactive	RunxB (Runt related B)	DRSC23150
119	125			inactive	CG33792	DRSC05355
131	128			inactive	CG42855	DRSC06161
116	195			inactive	sowi (solwind)	DRSC12558
144	200			inactive	CG13560	DRSC04198
244	151	5383	166	inactive	CG13838	DRSC14688
104	141			inactive	TAF1B	DRSC16001
84.2	105			inactive	ringer (ringmaker)	DRSC10455
108	136			inactive	CG1622	DRSC19745
138	122			inactive	Diedel	DRSC14317
98.1	83.9			inactive	CG4820	DRSC15654
90.7	131			inactive	CG33477	DRSC22934
87.6	144			inactive	CG13059	DRSC09942
75.2	131			inactive	CG31809	DRSC01561
113	177			inactive	CG14589	DRSC04866
85.6	107			inactive	whe (what else)	DRSC20537
135	154			inactive	p (pink)	DRSC16560
85.2	74.1			inactive	Polr2H (RNA polymerase II, I and III subunit H)	DRSC11642
81.2	115			inactive	ng1 (new glue 1)	DRSC18802
65.7	126			active	CG13784	DRSC00974
73.9	223			inactive	CG13784	DRSC02287
246	98.1			inactive	oc (ocelliless)	DRSC18808
110	92.5			inactive	Obp69a (Odorant-binding protein 69a)	DRSC11247
80.5	118			inactive	Pex1 (Peroxin 1)	DRSC11358
198	203			inactive	salto	DRSC06291
95.3	78.5			inactive	CG12817	DRSC14555
60.6	7376	142	149	active	Cyp6d2 (Cytochrome P450 6d2)	DRSC04606
100	176			inactive	Trs20 (TRAPP subunit 20)	DRSC10489
107	132			inactive	BBS5 (Bardet-Biedl syndrome 5)	DRSC12168
165	89.3			inactive	Phyhd1 (Phytanoyl-CoA dioxygenase domain containing 1)	DRSC14911
105	132			inactive	eIF4EHP	DRSC14265
134	148			inactive	m-cup (mann-cup)	DRSC14430
81.2	70.1			inactive	Hsp67Bc (Heat shock gene 67Bc)	DRSC11193
73.1	151			inactive	CG43084	DRSC09998
94.7	5710			inactive	dnr1 (defense repressor 1)	DRSC03948
74.5	130			inactive	dnr1 (defense repressor 1)	DRSC04122
149	115			inactive	mRpS18A (mitochondrial ribosomal protein S18A)	DRSC14369
71.3	70.8			active	Xrp1	DRSC15282
101	96.8			inactive	Xrp1	DRSC15283
110	254			inactive	CG11300	DRSC04104
120	271			inactive	Akap200 (A kinase anchor protein 200)	DRSC01864
103	98.3			inactive	CG10462	DRSC02058
165	80.2			inactive	Teh1 (tipE homolog 1)	DRSC14544
128	208			inactive	CG17475	DRSC15238
79.9	124			inactive	Rbp (RIM-binding protein)	DRSC15724
122	104			inactive	Rbp (RIM-binding protein)	DRSC15726

Entries listed above marked active (9):
calcium signal, replicate 1	calcium signal, replicate 2	retest calcium signal, replicate 1	retest calcium signal, replicate 2	Outcome	Target gene	dsRNA
54.3	116			active	B-H2 (BarH2)	DRSC19335
72.6	109			active	Prosalpha2 (Proteasome alpha2 subunit)	DRSC16798
62.3	99.9			active	CG30350	DRSC07690
54.5	45			active	CG44837	DRSC10133
86.5	92.8			active	Slu7	DRSC14729
67.1	120			active	RunxB (Runt related B)	DRSC20526
65.7	126			active	CG13784	DRSC00974
60.6	7376	142	149	active	Cyp6d2 (Cytochrome P450 6d2)	DRSC04606
71.3	70.8			active	Xrp1	DRSC15282
